Measurements: the supplement of paper PMC10849652
The other results are listed elsewhere or left out.

The chains behind the UniProt entries cited, without tags or fusion partners. Where a name states a change or a piece, a line headed by the entry shows the natural chain unless it says otherwise.
UniProt O43896: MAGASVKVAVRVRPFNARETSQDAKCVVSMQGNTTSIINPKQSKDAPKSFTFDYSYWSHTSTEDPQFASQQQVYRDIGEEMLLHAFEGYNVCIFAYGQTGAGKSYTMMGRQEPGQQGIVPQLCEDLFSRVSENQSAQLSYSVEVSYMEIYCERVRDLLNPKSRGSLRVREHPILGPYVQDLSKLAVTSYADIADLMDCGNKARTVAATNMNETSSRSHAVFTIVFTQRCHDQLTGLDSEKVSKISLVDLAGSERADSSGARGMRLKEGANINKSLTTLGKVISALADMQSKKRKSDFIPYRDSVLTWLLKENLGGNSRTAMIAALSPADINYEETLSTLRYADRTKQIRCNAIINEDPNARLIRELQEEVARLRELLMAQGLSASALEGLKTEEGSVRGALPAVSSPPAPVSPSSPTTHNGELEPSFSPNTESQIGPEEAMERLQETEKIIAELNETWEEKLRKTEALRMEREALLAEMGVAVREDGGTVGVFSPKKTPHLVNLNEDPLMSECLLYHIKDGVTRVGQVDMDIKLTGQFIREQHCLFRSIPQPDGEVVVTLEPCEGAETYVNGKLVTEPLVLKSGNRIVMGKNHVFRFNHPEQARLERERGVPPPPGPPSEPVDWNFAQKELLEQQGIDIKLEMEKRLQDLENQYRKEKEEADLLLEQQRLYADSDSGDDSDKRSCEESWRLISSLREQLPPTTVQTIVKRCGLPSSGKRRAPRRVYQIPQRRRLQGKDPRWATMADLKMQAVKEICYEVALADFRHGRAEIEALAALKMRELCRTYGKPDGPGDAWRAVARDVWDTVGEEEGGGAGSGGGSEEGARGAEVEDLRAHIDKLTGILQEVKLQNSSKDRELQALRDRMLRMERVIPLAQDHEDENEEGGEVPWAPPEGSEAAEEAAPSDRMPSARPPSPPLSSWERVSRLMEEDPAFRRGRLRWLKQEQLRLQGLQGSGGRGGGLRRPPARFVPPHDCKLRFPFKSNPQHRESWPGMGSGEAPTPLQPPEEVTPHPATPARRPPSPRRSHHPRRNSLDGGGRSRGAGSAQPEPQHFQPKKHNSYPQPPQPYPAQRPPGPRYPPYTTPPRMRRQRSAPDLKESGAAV
UniProt P41229: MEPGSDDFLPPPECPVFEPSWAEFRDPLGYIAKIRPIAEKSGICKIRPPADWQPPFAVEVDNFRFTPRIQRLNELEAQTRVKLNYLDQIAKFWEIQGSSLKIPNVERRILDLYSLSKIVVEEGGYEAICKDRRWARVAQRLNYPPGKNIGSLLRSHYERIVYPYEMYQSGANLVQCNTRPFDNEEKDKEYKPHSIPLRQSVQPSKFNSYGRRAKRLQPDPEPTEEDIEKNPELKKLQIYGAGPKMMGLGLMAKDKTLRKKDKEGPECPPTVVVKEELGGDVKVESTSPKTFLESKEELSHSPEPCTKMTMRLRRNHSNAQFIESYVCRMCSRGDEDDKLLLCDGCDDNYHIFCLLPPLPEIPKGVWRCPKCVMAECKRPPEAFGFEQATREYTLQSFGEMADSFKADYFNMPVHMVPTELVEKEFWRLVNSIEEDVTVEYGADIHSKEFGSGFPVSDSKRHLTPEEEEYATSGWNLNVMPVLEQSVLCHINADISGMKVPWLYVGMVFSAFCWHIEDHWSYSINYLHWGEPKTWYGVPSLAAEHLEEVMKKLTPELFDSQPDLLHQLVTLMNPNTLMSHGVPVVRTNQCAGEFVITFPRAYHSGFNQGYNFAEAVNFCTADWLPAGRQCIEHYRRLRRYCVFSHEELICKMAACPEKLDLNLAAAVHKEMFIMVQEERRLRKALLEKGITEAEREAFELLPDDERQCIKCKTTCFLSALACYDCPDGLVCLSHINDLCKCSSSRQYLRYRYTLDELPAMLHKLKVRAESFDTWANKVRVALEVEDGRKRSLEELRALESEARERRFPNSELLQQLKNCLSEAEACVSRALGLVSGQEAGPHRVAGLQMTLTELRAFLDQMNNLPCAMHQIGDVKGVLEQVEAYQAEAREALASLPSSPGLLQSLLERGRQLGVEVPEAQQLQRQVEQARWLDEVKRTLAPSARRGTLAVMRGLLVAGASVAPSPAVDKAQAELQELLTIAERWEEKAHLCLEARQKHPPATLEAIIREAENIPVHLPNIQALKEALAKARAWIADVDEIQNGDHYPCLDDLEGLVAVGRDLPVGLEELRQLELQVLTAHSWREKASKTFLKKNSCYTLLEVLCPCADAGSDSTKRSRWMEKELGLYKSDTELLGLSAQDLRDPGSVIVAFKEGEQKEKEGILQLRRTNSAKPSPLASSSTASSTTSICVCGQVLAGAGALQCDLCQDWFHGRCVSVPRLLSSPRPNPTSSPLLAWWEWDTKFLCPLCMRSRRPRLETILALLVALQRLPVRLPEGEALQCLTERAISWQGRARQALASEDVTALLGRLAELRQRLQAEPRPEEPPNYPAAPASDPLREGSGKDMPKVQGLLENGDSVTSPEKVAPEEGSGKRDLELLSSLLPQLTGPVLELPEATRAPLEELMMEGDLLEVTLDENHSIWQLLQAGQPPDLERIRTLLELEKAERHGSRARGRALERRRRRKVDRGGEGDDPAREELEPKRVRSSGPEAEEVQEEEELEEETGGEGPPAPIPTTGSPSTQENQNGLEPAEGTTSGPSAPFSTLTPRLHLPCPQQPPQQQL
UniProt Q71RC2, whole entry, looked up: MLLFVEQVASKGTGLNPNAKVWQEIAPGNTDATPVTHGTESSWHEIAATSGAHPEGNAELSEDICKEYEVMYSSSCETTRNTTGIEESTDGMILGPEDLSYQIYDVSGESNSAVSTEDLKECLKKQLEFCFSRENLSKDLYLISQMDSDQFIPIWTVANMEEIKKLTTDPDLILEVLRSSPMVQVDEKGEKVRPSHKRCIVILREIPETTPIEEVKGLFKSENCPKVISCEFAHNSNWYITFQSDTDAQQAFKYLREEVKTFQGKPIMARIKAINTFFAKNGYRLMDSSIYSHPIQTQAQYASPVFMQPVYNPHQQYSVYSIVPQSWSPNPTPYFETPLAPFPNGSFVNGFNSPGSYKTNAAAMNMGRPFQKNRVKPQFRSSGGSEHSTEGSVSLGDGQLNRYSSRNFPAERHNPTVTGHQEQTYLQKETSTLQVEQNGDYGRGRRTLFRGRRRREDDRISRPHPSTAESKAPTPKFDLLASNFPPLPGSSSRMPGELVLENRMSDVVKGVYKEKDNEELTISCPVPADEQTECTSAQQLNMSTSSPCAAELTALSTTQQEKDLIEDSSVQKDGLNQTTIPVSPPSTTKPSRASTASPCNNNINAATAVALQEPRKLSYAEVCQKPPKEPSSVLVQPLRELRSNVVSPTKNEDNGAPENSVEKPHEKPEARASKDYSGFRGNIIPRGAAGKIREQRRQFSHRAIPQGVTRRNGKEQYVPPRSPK
UniProt O00505, whole entry, looked up: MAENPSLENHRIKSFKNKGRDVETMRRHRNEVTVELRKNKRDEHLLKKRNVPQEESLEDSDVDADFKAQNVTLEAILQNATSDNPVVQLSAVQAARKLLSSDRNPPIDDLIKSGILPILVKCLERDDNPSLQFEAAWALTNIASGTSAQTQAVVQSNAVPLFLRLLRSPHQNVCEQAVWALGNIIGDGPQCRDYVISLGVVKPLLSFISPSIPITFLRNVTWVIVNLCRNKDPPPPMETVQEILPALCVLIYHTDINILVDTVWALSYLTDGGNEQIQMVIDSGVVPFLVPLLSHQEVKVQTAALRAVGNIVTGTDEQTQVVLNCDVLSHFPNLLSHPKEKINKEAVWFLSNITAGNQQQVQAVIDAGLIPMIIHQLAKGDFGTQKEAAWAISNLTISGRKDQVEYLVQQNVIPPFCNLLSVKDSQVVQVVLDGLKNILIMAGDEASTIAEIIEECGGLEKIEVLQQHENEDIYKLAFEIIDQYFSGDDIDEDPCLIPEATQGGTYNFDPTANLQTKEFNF
UniProt Q8IYS2: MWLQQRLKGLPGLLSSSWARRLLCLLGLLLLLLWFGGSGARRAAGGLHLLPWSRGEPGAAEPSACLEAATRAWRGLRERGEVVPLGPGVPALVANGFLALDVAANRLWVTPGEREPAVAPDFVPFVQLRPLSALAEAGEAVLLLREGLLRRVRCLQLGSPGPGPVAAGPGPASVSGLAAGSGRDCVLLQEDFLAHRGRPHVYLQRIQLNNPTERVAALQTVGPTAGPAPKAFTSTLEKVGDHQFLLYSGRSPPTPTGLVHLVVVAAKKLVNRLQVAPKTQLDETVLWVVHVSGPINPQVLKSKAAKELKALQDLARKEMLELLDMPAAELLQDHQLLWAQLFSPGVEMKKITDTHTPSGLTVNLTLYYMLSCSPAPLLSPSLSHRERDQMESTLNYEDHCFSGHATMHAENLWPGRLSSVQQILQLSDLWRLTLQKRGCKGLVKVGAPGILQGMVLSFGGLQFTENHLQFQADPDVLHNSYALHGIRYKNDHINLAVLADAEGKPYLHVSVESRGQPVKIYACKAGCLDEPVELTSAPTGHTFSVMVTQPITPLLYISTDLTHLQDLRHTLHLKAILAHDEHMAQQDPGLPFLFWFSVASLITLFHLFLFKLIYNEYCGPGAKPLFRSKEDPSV
UniProt O60268: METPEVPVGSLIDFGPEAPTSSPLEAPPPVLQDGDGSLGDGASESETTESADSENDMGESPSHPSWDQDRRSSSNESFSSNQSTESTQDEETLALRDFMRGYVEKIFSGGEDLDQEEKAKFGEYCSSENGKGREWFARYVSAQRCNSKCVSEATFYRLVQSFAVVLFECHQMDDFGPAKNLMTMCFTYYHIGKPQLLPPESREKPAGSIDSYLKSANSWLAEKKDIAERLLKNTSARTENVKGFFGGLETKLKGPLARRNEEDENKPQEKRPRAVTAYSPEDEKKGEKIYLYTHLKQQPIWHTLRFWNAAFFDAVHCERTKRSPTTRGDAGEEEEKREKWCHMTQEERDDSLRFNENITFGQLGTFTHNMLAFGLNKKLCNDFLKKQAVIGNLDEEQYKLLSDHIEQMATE
UniProt Q8NA19: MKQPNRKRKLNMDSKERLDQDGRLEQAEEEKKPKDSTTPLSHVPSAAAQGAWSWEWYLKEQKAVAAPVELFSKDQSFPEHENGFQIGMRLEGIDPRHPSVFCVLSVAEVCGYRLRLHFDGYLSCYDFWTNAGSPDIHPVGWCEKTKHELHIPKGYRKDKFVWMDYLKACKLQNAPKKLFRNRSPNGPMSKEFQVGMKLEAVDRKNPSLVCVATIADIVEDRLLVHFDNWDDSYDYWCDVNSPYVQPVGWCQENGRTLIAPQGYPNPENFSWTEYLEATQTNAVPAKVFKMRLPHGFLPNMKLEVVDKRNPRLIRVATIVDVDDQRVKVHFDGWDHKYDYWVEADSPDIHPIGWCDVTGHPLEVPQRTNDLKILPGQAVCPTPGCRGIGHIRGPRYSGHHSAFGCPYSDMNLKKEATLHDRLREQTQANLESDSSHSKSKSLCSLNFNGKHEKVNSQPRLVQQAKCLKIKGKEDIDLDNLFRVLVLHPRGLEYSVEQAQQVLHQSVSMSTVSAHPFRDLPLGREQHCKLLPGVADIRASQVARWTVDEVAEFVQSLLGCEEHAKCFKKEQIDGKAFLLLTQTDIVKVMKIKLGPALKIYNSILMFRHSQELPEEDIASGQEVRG
UniProt Q99661: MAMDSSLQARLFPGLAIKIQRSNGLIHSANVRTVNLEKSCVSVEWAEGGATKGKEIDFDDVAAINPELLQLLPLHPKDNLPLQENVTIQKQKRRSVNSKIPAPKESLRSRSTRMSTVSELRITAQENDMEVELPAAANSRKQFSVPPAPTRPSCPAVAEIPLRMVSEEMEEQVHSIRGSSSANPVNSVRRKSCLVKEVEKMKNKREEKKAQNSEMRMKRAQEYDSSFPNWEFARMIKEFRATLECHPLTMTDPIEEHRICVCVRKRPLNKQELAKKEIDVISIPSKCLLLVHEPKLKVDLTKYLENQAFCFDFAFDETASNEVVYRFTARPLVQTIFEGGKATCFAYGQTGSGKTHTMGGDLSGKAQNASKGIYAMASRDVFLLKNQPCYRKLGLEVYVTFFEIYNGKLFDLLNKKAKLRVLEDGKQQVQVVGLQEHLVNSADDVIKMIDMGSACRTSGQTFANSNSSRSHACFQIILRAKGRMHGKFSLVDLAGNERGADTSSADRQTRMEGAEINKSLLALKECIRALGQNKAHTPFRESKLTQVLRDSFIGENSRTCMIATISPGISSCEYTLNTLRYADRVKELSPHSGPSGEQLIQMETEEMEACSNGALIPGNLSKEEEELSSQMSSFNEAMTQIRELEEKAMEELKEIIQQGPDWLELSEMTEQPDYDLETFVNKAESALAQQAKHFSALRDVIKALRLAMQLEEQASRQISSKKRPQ

Legend:
Assay in all cases: log2 fold change, soluble protein after heating vs DMSO (PISA); higher = thermal stabilisation; K562 lysate, 10 uM; active = over 0.2 and 3.5 SD of the protein, either way, in both replicates (recomputed)
vemurafenib = compound: CCCS(=O)(=O)Nc1ccc(F)c(C(=O)c2c[nH]c3ncc(-c4ccc(Cl)cc4)cc23)c1F [vemurafenib]
Method in brief: (§1)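 Pellets of K562 cells were dounce-homogenised in PBS pH 7.4 with 1 mM MgCl2, and the crude extract was held at 1 mg/mL protein for a 30 min treatment with 10 μM compound. Aliquots were heated for 3 min over 48°C-58°C and pooled before NP-40 was added to 0.5% at 4°C. The supernatant from 21,000xg for 90 min was quantified by TMTpro 16plex LC-MS/MS with channel sums equalised. Values are reported from duplicates as log-two fold change in thermal stability relative to solvent controls.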

[1] = compound: CCCS(=O)(=O)Nc1ccc(F)c(C(=O)c2c[nH]c3ncc(Cl)cc23)c1F
Method in brief: as §1

barasertib = compound: CCN(CCCOc1ccc2c(Nc3cc(CC(=O)Nc4cccc(F)c4)[nH]n3)ncnc2c1)CCOP(=O)(O)O [barasertib]
Method in brief: as §1

[2] = compound: CC[C@@H]1C(=O)N(C)c2cnc(Nc3ccc(C(=O)NC4CCN(C)CC4)cc3OC)nc2N1C1CCCC1
Method in brief: as §1

volasertib = compound: CC[C@@H]1C(=O)N(C)c2cnc(Nc3ccc(C(=O)N[C@H]4CC[C@H](N5CCN(CC6CC6)CC5)CC4)cc3OC)nc2N1C(C)C [volasertib]
Method in brief: as §1

[3] = compound: CCn1c(C(=O)N(C2CC2)C2CC2)cc2c3c(ncn3C)c(Nc3cc(C)n(C)n3)nc21
Method in brief: as §1

[4] = compound: CCn1cc(-c2ccnc3[nH]c(-c4cccc(CN(C)C)c4)cc23)c(-c2ccc(NC(=O)N(C)C)cc2)n1
Method in brief: as §1

[5] = compound: CN1CCC(CNc2ccc3ncc(-c4cccc(OC(F)(F)F)c4)n3n2)CC1
Method in brief: as §1

sotrastaurin = compound: CN1CCN(c2nc(C3=C(c4c[nH]c5ccccc45)C(=O)NC3=O)c3ccccc3n2)CC1 [sotrastaurin]
Method in brief: as §1

alvocidib = compound: CN1CC[C@H](c2c(O)cc(O)c3c(=O)cc(-c4ccccc4Cl)oc23)[C@H](O)C1 [alvocidib]
Method in brief: as §1

Tubastatin A = compound: CN1CCc2c(c3ccccc3n2Cc2ccc(C(=O)NO)cc2)C1 [Tubastatin A]
Method in brief: as §1

[6] = compound: CNC(=O)C1=CC=CC=C1NC2=NC(=NC=C2Cl)NC3=C(C=C(C=C3)N4CCOCC4)OC
Method in brief: as §1

defactinib = compound: CNC(=O)c1ccc(Nc2ncc(C(F)(F)F)c(NCc3nccnc3N(C)S(C)(=O)=O)n2)cc1 [defactinib]
Method in brief: as §1

encorafenib = compound: COC(=O)N[C@@H](C)CNc1nccc(-c2cn(C(C)C)nc2-c2cc(Cl)cc(NS(C)(=O)=O)c2F)n1 [encorafenib]
Method in brief: as §1

[7] = compound: COC(=O)[C@H](CCSC)NC(=O)C1=C(C=C(C=C1)NC[C@H](CS)N)C2=CC=CC=C2
Method in brief: as §1

alisertib = compound: COc1cc(Nc2ncc3c(n2)-c2ccc(Cl)cc2C(c2c(F)cccc2OC)=NC3)ccc1C(=O)O [alisertib]
Method in brief: as §1

[8] = compound: COc1cc2nc(-c3cc(F)ccc3O)nc(N[C@@H]3CNC[C@H]3C(C)(C)O)c2cc1OC
Method in brief: as §1

gefitinib = compound: COc1cc2ncnc(Nc3ccc(F)c(Cl)c3)c2cc1OCCCN1CCOCC1 [gefitinib]
Method in brief: as §1

saracatinib = compound: CN1CCN(CCOc2cc(OC3CCOCC3)c3c(Nc4c(Cl)ccc5c4OCO5)ncnc3c2)CC1 [saracatinib]
Method in brief: as §1

[9] = compound: CNc1nc(-c2ccc3c(N)n[nH]c3c2)cc(N2C[C@@H](C(=O)NC3CCCCC3)CC[C@H]2C)n1
Method in brief: as §1

Measured: log2 fold change

KIF1C (UniProt O43896)
inactive: vemurafenib 0.052 | [1] -0.026 | barasertib -0.107 | [2] 0.411 | volasertib 0 | [3] 0.029 | [4] -0.025 | [5] 0.046 | sotrastaurin 0.014 | alvocidib -0.004 | Tubastatin A -0.055 | [6] -0.074 | defactinib 0.083 | encorafenib -0.213 | [7] 0.224 | alisertib -0.09 | [8] -0.007 | gefitinib 0.031

KDM5C (UniProt P41229)
inactive: vemurafenib 0.001 | [1] 0.036 | barasertib 0.096 | [2] -0.031 | volasertib 0.004 | [3] -0.001 | [4] -0.028 | [5] -0.059 | saracatinib 0.008 | sotrastaurin 0.019 | alvocidib -0.02 | Tubastatin A -0.115 | [6] 0.059 | defactinib -0.009 | [9] 0.04 | encorafenib -0.018 | [7] 0.176 | alisertib -0.01 | [8] 0.09 | gefitinib -0.013

LARP4 isoform 4 (UniProt Q71RC2)
inactive: vemurafenib -0.024 | [1] 0.05 | barasertib 0.007 | [2] -0.015 | volasertib -0.021 | [3] -0.004 | [4] -0.058 | [5] 0.012 | saracatinib 0.057 | sotrastaurin 0.031 | alvocidib -0.019 | Tubastatin A -0.113 | [6] 0.01 | defactinib -0.054 | [9] -0.012 | encorafenib -0.009 | [7] 0.05 | alisertib -0.007 | [8] -0.013 | gefitinib -0.077

KPNA3 (UniProt O00505)
inactive: vemurafenib -0.011 | [1] -0.002 | barasertib 0.043 | [2] -0.005 | volasertib -0.023 | [3] -0.003 | [4] -0.087 | [5] 0.056 | saracatinib -0.003 | sotrastaurin -0.046 | alvocidib -0.032 | Tubastatin A -0.027 | [6] -0.006 | defactinib -0.014 | [9] -0.003 | encorafenib -0.081 | [7] 0.054 | alisertib -0.011 | [8] 0.009 | gefitinib 0.013

KIAA2013 (UniProt Q8IYS2)
inactive: vemurafenib -0.047 | [1] 0.031 | barasertib 0.016 | [2] -0.032 | volasertib 0.006 | [3] 0.014 | [4] 0.037 | [5] 0.017 | saracatinib 0.026 | sotrastaurin -0.074 | alvocidib 0.056 | Tubastatin A 0.017 | [6] 0.057 | defactinib 0.02 | [9] 0.071 | encorafenib 0.052 | [7] 0.021 | alisertib -0.019 | [8] -0.031 | gefitinib 0.002

Two neighbouring records from above:
KDM5C (UniProt P41229)
inactive: vemurafenib 0.001 | [1] 0.036 | barasertib 0.096 | [2] -0.031 | volasertib 0.004 | [3] -0.001 | [4] -0.028 | [5] -0.059 | saracatinib 0.008 | sotrastaurin 0.019 | alvocidib -0.02 | Tubastatin A -0.115 | [6] 0.059 | defactinib -0.009 | [9] 0.04 | encorafenib -0.018 | [7] 0.176 | alisertib -0.01 | [8] 0.09 | gefitinib -0.013

LARP4 isoform 4 (UniProt Q71RC2)
inactive: vemurafenib -0.024 | [1] 0.05 | barasertib 0.007 | [2] -0.015 | volasertib -0.021 | [3] -0.004 | [4] -0.058 | [5] 0.012 | saracatinib 0.057 | sotrastaurin 0.031 | alvocidib -0.019 | Tubastatin A -0.113 | [6] 0.01 | defactinib -0.054 | [9] -0.012 | encorafenib -0.009 | [7] 0.05 | alisertib -0.007 | [8] -0.013 | gefitinib -0.077

Continued:

KIAA0513 (UniProt O60268)
inactive: vemurafenib 0.01 | [1] 0.032 | barasertib -0.005 | [2] 0.012 | volasertib -0.002 | [3] -0.01 | [4] -0.067 | [5] 0.074 | saracatinib 0.018 | sotrastaurin -0.011 | alvocidib -0.048 | Tubastatin A 0.024 | [6] 0.001 | defactinib -0.011 | [9] 0.037 | encorafenib 0.076 | [7] 0.009 | alisertib -0.03 | [8] 0.059 | gefitinib 0.046

L3MBTL4 (UniProt Q8NA19)
inactive: vemurafenib 0.059 | [1] -0.039 | barasertib 0.113 | [2] 0.152 | volasertib 0.038 | [3] -0.054 | [4] -0.191 | [5] -0.05 | sotrastaurin -0.013 | alvocidib -0.02 | Tubastatin A -0.011 | defactinib 0.02 | encorafenib -0.058 | [7] 0.156 | alisertib -0.032 | [8] 0.019 | gefitinib -0.12

KIF2C (UniProt Q99661)
inactive: vemurafenib 0.01 | [1] 0.004 | barasertib 0.008 | [2] -0.058 | volasertib -0.023 | [3] 0.016 | [4] 0.006 | [5] -0.015 | saracatinib -0.015 | sotrastaurin 0.02 | alvocidib 0.011 | Tubastatin A -0.18 | [6] -0.006 | defactinib 0.018 | [9] 0.002 | encorafenib 0.004 | [7] 0.096 | alisertib -0.006 | [8] 0.001 | gefitinib -0.014
